# These are yes or no findings as the source states them, for the method shown. Binding seen in cells or lysates may run through a third protein. Some entries that bind do so weakly or less than the wild type. For part of these data: Where a sequence is shown, tags or fusion partners need not be part of it.
# Chains of the proteins cited; added tags and fusions are not shown. Lines headed by an entry give the natural chain unless they say otherwise; changes in a name come on top.
# UniProt P31321: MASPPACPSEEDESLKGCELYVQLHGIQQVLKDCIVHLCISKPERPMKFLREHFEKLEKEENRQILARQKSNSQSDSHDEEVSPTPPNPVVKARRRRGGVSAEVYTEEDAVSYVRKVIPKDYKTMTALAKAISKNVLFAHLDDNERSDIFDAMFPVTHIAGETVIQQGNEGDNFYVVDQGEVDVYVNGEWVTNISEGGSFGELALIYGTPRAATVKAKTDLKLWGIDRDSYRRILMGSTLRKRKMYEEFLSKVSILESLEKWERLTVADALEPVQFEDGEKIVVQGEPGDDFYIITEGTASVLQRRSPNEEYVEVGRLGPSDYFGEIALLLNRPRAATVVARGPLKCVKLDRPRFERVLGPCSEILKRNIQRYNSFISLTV
# T1: smAKAP-LgBiT (UniProt Q9BSF0)
# T1 sequence: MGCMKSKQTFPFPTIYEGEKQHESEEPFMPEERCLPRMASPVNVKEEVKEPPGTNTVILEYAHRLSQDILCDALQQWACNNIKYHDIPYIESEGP
# Experiments:
# smAKAP-LgBiT = molecular target: T1, smAKAP-LgBiT; assay: split reporter; NanoBiT luciferase complementation in live COS-1 and HEK293 cells; 3 h Opti-MEM to deplete basal cAMP; 37°C; normalised to maximum complementation (HiBiT peptide) and to the RIβ^WT-LgBiT, RIβ^WT-SmBiT condition
# RIβ^WT-V5-LgBiT (human) = RIβ^WT-V5-LgBiT (human) (UniProt P31321); assay: co-IP; HEK293 cells co-transfected with V5-(LgBiT)-tagged RIβ and FLAG-tagged RIβ or EGFP-tagged smAKAP; lysis in IP buffer (20 mM Tris pH 7.5, 150 mM NaCl, 1% Triton X-100, 1 mM EDTA, 1 mM EGTA); anti-V5 tag agarose beads 1 h at 4°C; immunoblot
# [1] = molecular target: RIβ^L50R-V5-LgBiT (human) (UniProt P31321); assay: as above
binding (smAKAP-LgBiT),binding (RIβ^WT-V5-LgBiT (human)),binding [1],Molecule
binds,,,RIβ^WT-SmBiT (from UniProt P31321 1-381)
,binds,no binding,"smAKAP-FLAG-EGFP (protein, UniProt Q9BSF0 1-95) MGCMKSKQTFPFPTIYEGEKQHESEEPFMPEERCLPRMASPVNVKEEVKEPPGTNTVILEYAHRLSQDILCDALQQWACNNIKYHDIPYIESEGP"

# Source: paper PMC12369641
